Test results taken from US12258326B2, “Pyrazole derivative and harmful organism-controlling agent” (KUMIAI CHEMICAL INDUSTRY CO., LTD., priority 2018, dated 2025).
Some entries share one result that the patent states for a list of compounds.

What was measured:
Assay type in all cases: in vivo
[1] = system: Helicoverpa armigera; assay: Helicoverpa armigera killing test; conditions: active ingredient 500 ppm; dipped cabbage leaf; newly hatched larvae; after 6 days; 25° C.
Experimental: (§1) The water-dispersible powder prepared in accordance with Formulation example 2 was diluted in water so that the concentration of the active ingredient was 500 ppm. A cabbage leaf was dipped in this liquid agent, and air-dried, and then put into a plastic cup. Five newly hatched larvae of Helicoverpa armigera were released in the cup, and the cup was lidded. Then, the cup was placed in a thermostatic chamber at 25° C., and the number of dead insects was examined after 6 days, and the insect mortality was determined by the calculation formula of numerical formula 1. The test was conducted in duplicate.

[2] = system: Aphis gossypii; assay: Aphis gossypii killing test; conditions: active ingredient 500 ppm; dipped cucumber nursery plant inoculated with nymphs; after 3 days; 25° C.
Experimental: The water-dispersible powder prepared in accordance with Formulation example 2 was diluted in water so that the concentration of the active ingredient was 500 ppm. A nursery plant of cucumber preliminarily inoculated with nymphs of Aphis gossypii was dipped in this liquid agent, and air-dried. The nursery plant of cucumber after the treatment was placed in a thermostatic chamber at 25° C., and the number of live insects was counted after 3 days, and the insect mortality was determined by the calculation formula of numerical formula 1. The test was conducted singly.

[3] = system: Nilaparvata lugens; assay: Nilaparvata lugens killing activity test; conditions: active ingredient 500 ppm; dipped paddy; second instar larvae; after 6 days; 25° C.
Experimental: The water-dispersible powder prepared in accordance with Formulation example 2 was diluted in water so that the concentration of the active ingredient was 500 ppm. Paddy was dipped in this liquid agent, and then put into a plastic cup. Ten second instar larvae of Nilaparvata lugens were released in the plastic cup, and the cup was lidded, and placed in a thermostatic chamber at 25° C. After 6 days, the number of live insects was counted, and the insect mortality was determined by the calculation formula of numerical formula 1. The test was conducted singly.

[4] = system: Plutella xylostella; assay: Plutella xylostella killing test; conditions: active ingredient 500 ppm; dipped cabbage leaf; second instar larvae; after 6 days; 25° C.
Experimental: as §1, with “Ten second instar” for “Five newly hatched”, “Plutella xylostella” for “Helicoverpa armigera”, “singly.” for “in duplicate.”

SMILES | insect mortality [1] [%] | insect mortality [2] [%] | insect mortality [3] [%] | insect mortality [4] [%]
C#Cc1ccc(-c2cn(-c3cccnc3)nc2C(N)=O)cc1 [A-0103] | ≥ 50 | ≥ 50 | – | –
CC(C)Oc1ccccc1-c1cn(-c2cccnc2)nc1C(N)=O [A-0128] | ≥ 50 | – | ≥ 50 | –
CC(C)COc1ccccc1-c1cn(-c2cccnc2)nc1C(N)=O [A-0137] | ≥ 50 | – | – | –
NC(=O)c1nn(-c2cccnc2)cc1-c1cccc(OC(F)(F)F)c1 [A-0144] | – | ≥ 50 | – | ≥ 50
NC(=O)c1nn(-c2cccnc2)cc1-c1ccccc1SC(F)(F)F [A-0188] | ≥ 50 | – | ≥ 50 | –
NC(=O)c1ccccc1-c1cn(-c2cccnc2)nc1C(N)=O [A-0242] | ≥ 50 | – | ≥ 50 | –
NC(=O)c1nn(-c2cccnc2)cc1-c1ccccc1-c1ccccc1 [A-0338] | ≥ 50 | – | – | ≥ 50
CN(C)c1ccccc1-c1cn(-c2cccnc2)nc1C(N)=O [A-0512] | ≥ 50 | ≥ 50 | – | –
CON=Cc1ccccc1-c1cn(-c2cccnc2)nc1C(N)=O [A-0542] | ≥ 50 | – | – | ≥ 50
NC(=O)c1nn(-c2cccnc2)cc1-c1ccc([N+](=O)[O-])cc1 [A-0553] | ≥ 50 | – | – | –
Cc1cccc(F)c1-c1cn(-c2cccnc2)nc1C(N)=O [A-0573] | – | ≥ 50 | – | ≥ 50
Cc1ccc(-c2cn(-c3cccnc3)nc2C(N)=O)c(C2CC2)c1 [A-0691] | ≥ 50 | ≥ 50 | – | –
NC(=O)c1cc(F)ccc1-c1cn(-c2cccnc2)nc1C(N)=O [A-0875] | – | ≥ 50 | – | ≥ 50
COCc1c(C)cccc1-c1cn(-c2cccnc2)nc1C(N)=O [A-0910] | ≥ 50 | – | ≥ 50 | –
COCc1cc(C)ccc1-c1cn(-c2cccnc2)nc1C(N)=O [A-0911] | ≥ 50 | – | – | ≥ 50
COCc1ccc(C)cc1-c1cn(-c2cccnc2)nc1C(N)=O [A-0912] | ≥ 50 | – | – | –
COCc1cccc(C)c1-c1cn(-c2cccnc2)nc1C(N)=O [A-0913] | ≥ 50 | ≥ 50 | – | –
Cc1ccc(C#N)c(-c2cn(-c3cccnc3)nc2C(N)=O)c1 [A-1076] | ≥ 50 | – | ≥ 50 | –
COc1c(C)ccc(C)c1-c1cn(-c2cccnc2)nc1C(N)=O [A-1148] | ≥ 50 | – | ≥ 50 | –
Cc1ccc(F)c(-c2cn(-c3cccnc3)nc2C(N)=O)c1Cl [A-1153] | ≥ 50 | – | ≥ 50 | –

SMILES | insect mortality [1] [%] | insect mortality [2] [%] | insect mortality [3] [%] | insect mortality [4] [%]
NC(=O)c1nn(-c2cccnc2)cc1-c1ccccc1C(Cl)Cl [A-1165] | ≥ 50 | ≥ 50 | – | –
CC(=O)NC(=O)c1nn(-c2cccnc2)cc1-c1ccccc1C [A-4606] | – | ≥ 50 | – | ≥ 50
Cc1ccc(C)c(-c2cn(-c3ccc[n+]([O-])c3)nc2C(N)=O)c1 [A-9480] | ≥ 50 | – | – | –
NC(=O)c1nn(-c2cccnc2)cc1I [B-0003] | – | ≥ 50 | – | ≥ 50
NC(=O)c1nn(-c2cccnc2)cc1-c1ccncc1 [B-0199] | ≥ 50 | – | – | ≥ 50
NC(=O)c1nn(-c2cccnc2)cc1-c1cccs1 [B-0287] | ≥ 50 | – | ≥ 50 | –
Cc1sccc1-c1cn(-c2cccnc2)nc1C(N)=O [B-0296] | – | – | ≥ 50 | ≥ 50
CCc1noc(CC)c1-c1cn(-c2cccnc2)nc1C(N)=O [B-0454] | ≥ 50 | – | ≥ 50 | –
NC(=O)c1nn(-c2cccnc2)cc1-c1ccnc2ccccc12 [B-0456] | – | – | ≥ 50 | ≥ 50
COc1cc(-c2cn(-c3cccnc3)nc2C(N)=O)c(OC)nn1 [B-0458] | – | – | ≥ 50 | ≥ 50
CCOC(=O)c1nn(-c2cccnc2)cc1-c1ccc(F)cc1 [C-0004] | ≥ 50 | – | – | –
CCOC(=O)c1nn(-c2cccnc2)cc1-c1ccccc1Br [C-0008] | ≥ 50 | – | – | ≥ 50
CCOC(=O)c1nn(-c2cccnc2)cc1-c1ccccc1C [C-0020] | – | ≥ 50 | – | ≥ 50
CCOC(=O)c1nn(-c2cccnc2)cc1-c1ccc(C)cc1 [C-0022] | ≥ 50 | – | ≥ 50 | –
CCOC(=O)c1nn(-c2cccnc2)cc1-c1ccccc1CC [C-0023] | – | – | ≥ 50 | ≥ 50
CCOC(=O)c1nn(-c2cccnc2)cc1-c1ccccc1C(C)(C)C [C-0041] | ≥ 50 | – | ≥ 50 | –
CCOC(=O)c1nn(-c2cccnc2)cc1-c1ccc(C(F)(F)F)cc1 [C-0046] | ≥ 50 | – | – | –
CCOC(=O)c1nn(-c2cccnc2)cc1-c1cccc(OC)c1 [C-0120] | ≥ 50 | – | ≥ 50 | –
CCOC(=O)c1nn(-c2cccnc2)cc1-c1cccc(OC(F)F)c1 [C-0147] | ≥ 50 | – | ≥ 50 | –
CCOC(=O)c1nn(-c2cccnc2)cc1-c1ccccc1OC1CC1 [C-0152] | – | – | ≥ 50 | ≥ 50

SMILES | insect mortality [1] [%] | insect mortality [2] [%] | insect mortality [3] [%] | insect mortality [4] [%]
CCOC(=O)c1nn(-c2cccnc2)cc1-c1ccccc1S(C)(=O)=O [C-0185] | – | – | ≥ 50 | ≥ 50
CCOC(=O)c1nn(-c2cccnc2)cc1OS(C)(=O)=O [D-0004] | ≥ 50 | – | – | –
CCOC(=O)c1nn(-c2cccnc2)cc1-c1cccnc1 [D-0098] | – | – | ≥ 50 | ≥ 50
CCOC(=O)c1nn(-c2cccnc2)cc1-c1cccnc1OC [D-0115] | ≥ 50 | ≥ 50 | – | –
CCOC(=O)c1nn(-c2cccnc2)cc1-c1cccs1 [D-0295] | ≥ 50 | – | ≥ 50 | –
CCOC(=O)c1nn(-c2cccnc2)cc1-c1ccsc1 [D-0301] | ≥ 50 | ≥ 50 | – | –
CCOC(=O)c1nn(-c2cccnc2)cc1-c1cnc(OC)nc1OC [D-0466] | – | – | ≥ 50 | ≥ 50
O=C(O)c1nn(-c2cccnc2)cc1-c1cccc(Cl)c1 [E-0006] | ≥ 50 | – | – | ≥ 50
O=C(O)c1nn(-c2cccnc2)cc1-c1ccccc1Br [E-0008] | ≥ 50 | – | – | ≥ 50
CCc1ccccc1-c1cn(-c2cccnc2)nc1C(=O)O [E-0023] | – | ≥ 50 | – | ≥ 50
O=C(O)c1nn(-c2cccnc2)cc1-c1ccccc1C(F)F [E-0047] | ≥ 50 | – | – | ≥ 50
COc1ccccc1-c1cn(-c2cccnc2)nc1C(=O)O [E-0119] | ≥ 50 | – | – | ≥ 50
COc1ccc(-c2cn(-c3cccnc3)nc2C(=O)O)cc1 [E-0121] | ≥ 50 | ≥ 50 | – | –
CCCOc1ccccc1-c1cn(-c2cccnc2)nc1C(=O)O [E-0125] | – | – | ≥ 50 | ≥ 50
CCC(C)Oc1ccccc1-c1cn(-c2cccnc2)nc1C(=O)O (centres unmarked) [E-0134] | – | – | ≥ 50 | ≥ 50
O=C(O)c1nn(-c2cccnc2)cc1-c1ccc(OC(F)F)cc1 [E-0148] | ≥ 50 | – | ≥ 50 | –
CCSc1ccccc1-c1cn(-c2cccnc2)nc1C(=O)O [E-0179] | – | – | ≥ 50 | ≥ 50
O=C(O)c1nn(-c2cccnc2)cc1-c1ccc2ccccc2c1 [F-0017] | ≥ 50 | – | – | –
O=C(O)c1nn(-c2cccnc2)cc1-c1cccnc1F [F-0099] | ≥ 50 | – | ≥ 50 | –
